Data: article PMC12785128
These are yes or no findings as the source states them, for the method shown. In cells and extracts the contact can be indirect. Some results given as binding are weak or reduced against the parent protein; the word gives no strength.

Amino acid sequences for entries named in this document (tags omitted). A change or cut given only in a name is not applied to a line headed by its entry. Residues count along the entry.
UniProt P01033, residues 24-207: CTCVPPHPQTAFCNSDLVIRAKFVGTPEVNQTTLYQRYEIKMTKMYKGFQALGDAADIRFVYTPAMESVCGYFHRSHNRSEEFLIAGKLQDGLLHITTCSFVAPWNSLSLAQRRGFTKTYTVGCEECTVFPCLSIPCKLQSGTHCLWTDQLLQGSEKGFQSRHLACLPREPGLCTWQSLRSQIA
UniProt P12032, residues 25-205: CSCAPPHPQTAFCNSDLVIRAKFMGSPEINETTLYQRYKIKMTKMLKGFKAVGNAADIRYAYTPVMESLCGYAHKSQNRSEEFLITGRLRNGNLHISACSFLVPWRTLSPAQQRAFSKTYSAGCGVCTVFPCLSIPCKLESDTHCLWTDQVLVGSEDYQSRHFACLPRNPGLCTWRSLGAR
UniProt P05556: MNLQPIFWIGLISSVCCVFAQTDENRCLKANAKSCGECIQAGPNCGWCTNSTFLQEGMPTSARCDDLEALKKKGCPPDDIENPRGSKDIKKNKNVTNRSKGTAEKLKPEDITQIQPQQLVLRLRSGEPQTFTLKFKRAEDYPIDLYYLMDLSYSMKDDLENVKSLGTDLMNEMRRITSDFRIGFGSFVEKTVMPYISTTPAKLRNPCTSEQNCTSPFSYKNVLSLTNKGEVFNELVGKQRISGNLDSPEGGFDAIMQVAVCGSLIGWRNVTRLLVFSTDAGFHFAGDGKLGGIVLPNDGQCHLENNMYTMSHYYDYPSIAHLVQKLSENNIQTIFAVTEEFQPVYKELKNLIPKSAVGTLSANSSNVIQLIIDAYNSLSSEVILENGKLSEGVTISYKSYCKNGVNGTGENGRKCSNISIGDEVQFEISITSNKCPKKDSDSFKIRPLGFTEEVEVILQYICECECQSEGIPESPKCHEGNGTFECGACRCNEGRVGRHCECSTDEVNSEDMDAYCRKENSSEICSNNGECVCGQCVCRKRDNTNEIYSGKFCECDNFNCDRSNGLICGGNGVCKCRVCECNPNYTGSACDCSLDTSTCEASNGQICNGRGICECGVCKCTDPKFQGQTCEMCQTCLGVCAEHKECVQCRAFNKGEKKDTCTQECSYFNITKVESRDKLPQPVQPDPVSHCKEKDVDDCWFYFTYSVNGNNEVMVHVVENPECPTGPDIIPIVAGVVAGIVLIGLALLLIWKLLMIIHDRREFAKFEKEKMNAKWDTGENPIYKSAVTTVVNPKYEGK
UniProt P09055, residues 21-798: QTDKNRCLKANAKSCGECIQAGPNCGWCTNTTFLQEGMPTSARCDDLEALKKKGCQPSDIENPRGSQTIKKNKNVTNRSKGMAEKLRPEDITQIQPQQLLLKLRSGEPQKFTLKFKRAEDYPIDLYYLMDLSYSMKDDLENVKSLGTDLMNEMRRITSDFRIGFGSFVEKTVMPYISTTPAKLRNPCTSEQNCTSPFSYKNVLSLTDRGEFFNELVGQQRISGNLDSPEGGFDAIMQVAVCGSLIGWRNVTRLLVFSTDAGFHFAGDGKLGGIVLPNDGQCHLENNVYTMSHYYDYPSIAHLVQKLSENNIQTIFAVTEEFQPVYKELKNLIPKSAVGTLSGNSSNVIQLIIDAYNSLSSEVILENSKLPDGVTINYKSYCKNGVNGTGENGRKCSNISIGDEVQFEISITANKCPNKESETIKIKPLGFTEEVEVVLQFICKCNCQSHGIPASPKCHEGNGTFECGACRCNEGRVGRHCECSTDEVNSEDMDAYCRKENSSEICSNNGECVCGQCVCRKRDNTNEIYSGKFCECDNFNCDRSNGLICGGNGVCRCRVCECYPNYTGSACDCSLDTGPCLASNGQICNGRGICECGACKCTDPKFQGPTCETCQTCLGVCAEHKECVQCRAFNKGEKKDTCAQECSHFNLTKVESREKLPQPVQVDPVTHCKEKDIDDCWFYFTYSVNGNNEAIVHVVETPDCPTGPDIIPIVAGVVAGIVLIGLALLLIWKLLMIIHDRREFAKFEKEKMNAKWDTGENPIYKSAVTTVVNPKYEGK

B1: CD63, endogenous in RAW264.7 macrophages (receptor, UniProt P41731 1-238)
chain: MAVEGGMKCVKFLLYVLLLAFCACAVGLIAIGVAVQVVLKQAITHETTAGSLLPVVIIAVGAFLFLVAFVGCCGACKENYCLMITFAIFLSLIMLVEVAVAIAGYVFRDQVKSEFNKSFQQQMQNYLKDNKTATILDKLQKENNCCGASNYTDWENIPGMAKDRVPDSCCINITVGCGNDFKESTIHTQGCVETIAIWLRKNILLVAAAALGIAFVEVLGIIFSCCLVKSIRSGYEVM

Legend:
[1] = target: tissue inhibitor of metalloproteinases-1 (TIMP1), endogenous in THP-1-derived macrophages (human (endogenous in THP-1)) (UniProt P01033); test: co-IP; precleared cell lysates incubated overnight at 4 °C with protein A/G agarose beads carrying anti-TIMP1 or normal IgG; washed with lysis buffer; Western blot for CD63, β1-integrin and TIMP1; endogenous proteins of RAW264.7 and THP-1-derived macrophages
[2] = target: tissue inhibitor of metalloproteinases-1 (TIMP1), endogenous in RAW264.7 macrophages (mouse (endogenous in RAW264.7)) (UniProt P12032); test: as above

Row | Molecule | binding [1] | binding [2]
1 | β1-integrin, endogenous in THP-1-derived macrophages (from UniProt P05556 21-798) (receptor) | binds | –
2 | CD63, endogenous in THP-1-derived macrophages (from UniProt P08962 1-238) (receptor) | binds | –
3 | β1-integrin, endogenous in RAW264.7 macrophages (from UniProt P09055 21-798) (receptor) | – | binds
4 | B1 | – | binds
